# Source: US11491169B2, “Remdesivir treatment methods” (Gilead Sciences, Inc., priority 2020, dated 2022)
# For part of these data: At least one read-out could not be matched to a standard name with certainty. Some entries share one result that the patent states for a list of compounds.
# Legend:
# [1] = doses recommended under the former EUA guidance for COVID-19; cited from earlier work
# [2] = system: SARS-CoV-2; experiment: SARS-CoV-2 Nluc antiviral assay in A549-hACE2 cells; assay type: cell-based; settings: CQ or HCQ at concentrations up to 2.5 μM
smiles,measurement,setting,value
"CCN(CC)CCCC(C)Nc1ccnc2cc(Cl)ccc12 (stereo not drawn) [CQ, N′-(7-chloroquinolin-4-yl)-N,N-diethyl-pentane-1,4-diamine, reference compound]",Lung concentrations,[1],> 20 µM
"CCC(CC)COC(=O)[C@H](C)N[P@](=O)(OC[C@H]1O[C@@](C#N)(c2ccc3c(N)ncnn23)[C@H](O)[C@@H]1O)Oc1ccccc1 [Formula Ia, (S)-2-ethylbutyl 2-(((S)-(((2R,3S,4R,5R)-5-(4-aminopyn-olo[2,1-f][1,2,4]triazin-7-yl)-5-cyano-3,4-dihydroxytetrahydrofuran-2-yl)methoxy)(phenoxy)phosphoryl)amino)propanoate]",Formula Ia EC50 values when combined with CQ or HCQ,[2],not observably different
"CCN(CCO)CCCC(C)Nc1ccnc2cc(Cl)ccc12 (stereo not drawn) [HCQ, 2-[{4-[(7-chloroquinolin-4-yl)amino]pentyl}(ethyl)amino]ethanol]",Lung concentrations,[1],> 20 µM
